{
  "sequences": {"note": "Protein sequences, listed by entry. Tags and fused reporters are not part of them. Residues count along the entry.", "UniProt Q9NZQ7, residues 19-290": "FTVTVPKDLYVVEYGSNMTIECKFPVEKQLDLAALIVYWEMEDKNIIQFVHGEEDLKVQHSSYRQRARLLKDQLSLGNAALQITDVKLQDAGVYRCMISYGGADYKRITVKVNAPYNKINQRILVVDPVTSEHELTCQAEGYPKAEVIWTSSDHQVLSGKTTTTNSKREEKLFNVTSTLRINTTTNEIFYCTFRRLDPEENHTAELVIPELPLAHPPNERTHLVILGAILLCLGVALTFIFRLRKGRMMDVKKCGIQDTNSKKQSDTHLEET"},
  "source": "paper PMC5620257",
  "molecules": {"B1": {"name": "FK506 binding protein 51 short (FKBP51s), spliced isoform 2 of FKBP51 (protein, UniProt Q13451-2 1-268)", "chain": "MTTDEGAKNNEESPTATVAEQGEDITSKKDRGVLKIVKRVGNGEETPMIGDKVYVHYKGKLSNGKKFDSSHDRNEPFVFSLGKGQVIKAWDIGVATMKKGEICHLLCKPEYAYGSAGSLPKIPSNATLFFEIELLDFKGEDLFEDGGIIRRTKRKGEGYSNPNEGATVEIHLEGRCGGRMFDCRDVAFTVGEGEDHDIPIGIDKALEKMQREEQCILYLGPRPKNPGRWIPKKNWSRLPLSKRREPYTSRCVSPYAILSISKNLFKCW"}},
  "key": {"[1]": {"molecular_target": "T1, FK506 binding protein 51 short (FKBP51s), spliced isoform 2 of FKBP51 (human (endogenous in D54)) (UniProt Q13451)", "T1 sequence": "B1 chain", "experiment": "co-IP; endogenous proteins of the ER fraction of D54 glioblastoma cells; lysate pre-cleared, 1 ug of anti-PD-L1 or anti-FKBP51s overnight at 4 °C, Protein A-Agarose 2 h at 4 °C, washed in modified RIPA buffer, immunoblot for each protein"}, "[2]": {"molecular_target": "Programmed Death Ligand 1 (PD-L1) (human (endogenous in D54)) (UniProt Q9NZQ7)", "experiment": "co-IP; endogenous proteins of the ER fraction of D54 glioblastoma cells; lysate pre-cleared, 1 ug of anti-PD-L1 or anti-FKBP51s overnight at 4 °C, Protein A-Agarose 2 h at 4 °C, washed in modified RIPA buffer, immunoblot for each protein"}},
  "note": "No constants are given. Whether binding was seen depends on the method and setting. Binding seen in cells or lysates may run through a third protein. Some entries that bind do so weakly or less than the wild type.",
  "data": [
    {"molecule": "Programmed Death Ligand 1 (PD-L1) (from UniProt Q9NZQ7 19-290)", "values": [
      {"measurement": "binding", "setting": "[1]", "result": "binds"}
    ]},
    {"molecule": "B1", "values": [
      {"measurement": "binding", "setting": "[2]", "result": "binds"}
    ]}
  ]
}
